Measurements taken from US9517222B2, “Method for the treatment of senile dementia of the Alzheimer's type” (Phenomenome Discoveries Inc., priority 2007, dated 2016).

Tests used:
[1] = Serum ethanolamine phospholipid levels in human cohorts (dementia severity, post-mortem pathology, age) by flow-injection MS/MS
[2] = Serum ethanolamine phospholipid ratios to PtdEt 16:0/18:0 (M01) in human cohorts
[3] = serum, females, post mortem SDAT
[4] = serum, females, post mortem control

CCCCC/C=C\C/C=C\C/C=C\C/C=C\CCCCCC(=O)OC(COCCCCCCCCCCCCCCCCCC)COP(=O)(O)OCCN (centres unmarked) [Metabolite M13, Plasmanyl 18:0/22:4]
Ratio of serum levels ([1]; AD, All to CN, Male): 0.850 | Ratio of serum levels ([1]; ADAS 5-19 to CN, Male): 0.890 | Ratio of serum levels ([1]; ADAS 20-39 to 5-19, Male): 0.930 | Ratio of serum levels ([1]; ADAS 20-39 to CN, Male): 0.827 | Ratio of serum levels ([1]; ADAS 40-70 to 5-19, Male): 0.883 | Ratio of serum levels ([1]; ADAS 40-70 to 20-39, Male): 0.950 | Ratio of serum levels ([1]; ADAS 40-70 to CN, Male): 0.786 | Serum level, Mean ([1]; Cognitive Normal, Female): 0.013 | Average serum level, Mean ([1]; Cognitive Normal, Male): 0.013 | Serum level, Mean ([1]; Post Mortem Ctl, Male): 0.009 | Serum level, Mean ([1]; Post Mortem SDAT Male): 0.008 | Ratio of serum levels ([1]; Post mortem SDAT vs Control, Male): 0.576 | Serum level, Mean ([1]; SDAT, ADAS 5-19, Female): 0.011 | Average serum level, Mean ([1]; SDAT, ADAS 5-19, Male): 0.011 | Serum level, Mean ([1]; SDAT, ADAS 20-39, Female): 0.010 | Average serum level, Mean ([1]; SDAT, ADAS 20-39, Male): 0.010 | Serum level, Mean ([1]; SDAT, ADAS 40-70, Female): 0.010 | Average serum level, Mean ([1]; SDAT, ADAS 40-70, Male): 0.010 | Serum level, Mean ([1]; SDAT_all, Female): 0.010 | Average serum level, Mean ([1]; SDAT_all, Male): 0.011 | Ratio, ADAS 5-19 to CN, Female ([1]; serum level ratio, females, ADAS 5-19 vs CN): 0.834 | Ratio, ADAS 20-39 to 5-19, Female ([1]; serum level ratio, females, ADAS 20-39 vs ADAS 5-19): 0.953 | Ratio, ADAS 20-39 to CN, Female ([1]; serum level ratio, females, ADAS 20-39 vs CN): 0.794 | Ratio, ADAS 40-70 to 5-19, Female ([1]; serum level ratio, females, ADAS 40-70 vs ADAS 5-19): 0.936 | Ratio, ADAS 40-70 to 20-39, Female ([1]; serum level ratio, females, ADAS 40-70 vs ADAS 20-39): 0.982 | Ratio, ADAS 40-70 to CN, Female ([1]; serum level ratio, females, ADAS 40-70 vs CN): 0.780 | Ratio, 50-59 vs. 40-49, Female ([1]; serum level ratio, females, age 50-59 vs 40-49): 0.806 | Ratio, 60-69 vs. 40-49, Female ([1]; serum level ratio, females, age 60-69 vs 40-49): 0.737 | Ratio, 70+ vs. 40-49, Female ([1]; serum level ratio, females, age 70+ vs 40-49): 0.839 | Ratio, AD, All to CN, Female ([1]; serum level ratio, females, all AD vs cognitively normal): 0.800 | Ratio, Autopsy AD vs. Control, Female ([1]; serum level ratio, females, autopsy AD vs control): 0.865 | Ratio, 50-59 vs. 40-49, Male ([1]; serum level ratio, males, age 50-59 vs 40-49): 1.007 | Ratio, 60-69 vs. 40-49, Male ([1]; serum level ratio, males, age 60-69 vs 40-49): 1.032 | Ratio, 70+ vs. 40-49, Male ([1]; serum level ratio, males, age 70+ vs 40-49): 0.921 | Mean serum level, Age Ctl, 30-39, Female ([1]; serum, females, age 30-39): 0.013 | Mean serum level, Age Ctl, 40-49, Female ([1]; serum, females, age 40-49): 0.015 | Mean serum level, Age Ctl, 50-59, Female ([1]; serum, females, age 50-59): 0.012 | Mean serum level, Age Ctl, 60-69, Female ([1]; serum, females, age 60-69): 0.011 | Mean serum level, Age Ctl, 70+, Female ([1]; serum, females, age 70+): 0.012 | Mean serum level, Post Mortem SDAT, Female [1, 3]: 0.005 | Mean serum level, Post Mortem Ctl, Female [1, 4]: 0.010 | Mean serum level, Age Ctl, 30-39, Male ([1]; serum, males, age 30-39): 0.015 | Mean serum level, Age Ctl, 40-49, Male ([1]; serum, males, age 40-49): 0.013 | Mean serum level, Age Ctl, 50-59, Male ([1]; serum, males, age 50-59): 0.013 | Mean serum level, Age Ctl, 60-69, Male ([1]; serum, males, age 60-69): 0.013 | Mean serum level, Age Ctl, 70+, Male ([1]; serum, males, age 70+): 0.012 | Ratio of ethanolamine phospholipid ratios to M01 between cohorts ([2]; AD, All to CN, Male): 0.811 | Ratio of ethanolamine phospholipid ratios to M01 between cohorts ([2]; ADAS 5-19 to CN, Male): 0.846 | Ratio of ethanolamine phospholipid ratios to M01 between cohorts ([2]; ADAS 20-39 to CN, Male): 0.802 | Ratio of ethanolamine phospholipid ratios to M01 between cohorts ([2]; ADAS 40-70 to CN, Male): 0.772 | Average serum ethanolamine phospholipid ratio to M01, Mean ([2]; Cognitive Normal, Male, serum): 0.114 | Average serum ethanolamine phospholipid ratio to M01, Mean ([2]; SDAT, ADAS 5-19, Male, serum): 0.096 | Average serum ethanolamine phospholipid ratio to M01, Mean ([2]; SDAT, ADAS 20-39, Male, serum): 0.091 | Average serum ethanolamine phospholipid ratio to M01, Mean ([2]; SDAT, ADAS 40-70, Male, serum): 0.088 | Average serum ethanolamine phospholipid ratio to M01, Mean ([2]; SDAT_all, Male, serum): 0.092 | Ethanolamine Phospholipid Ratio to M01, Mean, Age Ctl, 30-39, Female ([2]; human serum, females aged 30-39): 0.129 | Ethanolamine Phospholipid Ratio to M01, Mean, Age Ctl, 40-49, Female ([2]; human serum, females aged 40-49): 0.136 | Ethanolamine Phospholipid Ratio to M01, Mean, Age Ctl, 50-59, Female ([2]; human serum, females aged 50-59): 0.122 | Ratio of Ethanolamine Phospholipid Ratio to M01, 50-59 vs. 40-49, Female ([2]; human serum, females aged 50-59 vs. females aged 40-49): 0.900 | Ethanolamine Phospholipid Ratio to M01, Mean, Age Ctl, 60-69, Female ([2]; human serum, females aged 60-69): 0.092 | Ratio of Ethanolamine Phospholipid Ratio to M01, 60-69 vs. 40-49, Female ([2]; human serum, females aged 60-69 vs. females aged 40-49): 0.680 | Ethanolamine Phospholipid Ratio to M01, Mean, Age Ctl, 70+_Female ([2]; human serum, females aged 70+): 0.104 | Ratio of Ethanolamine Phospholipid Ratio to M01, 70+ vs. 40-49, Female ([2]; human serum, females aged 70+ vs. females aged 40-49): 0.764 | Ratio of Ethanolamine Phospholipid Ratio to M01, 50-59 vs. 40-49, Male ([2]; human serum, males aged 50-59 vs. males aged 40-49): 1.035 | Ratio of Ethanolamine Phospholipid Ratio to M01, 60-69 vs. 40-49, Male ([2]; human serum, males aged 60-69 vs. males aged 40-49): 0.873 | Ratio of Ethanolamine Phospholipid Ratio to M01, 70+ vs. 40-49, Male ([2]; human serum, males aged 70+ vs. males aged 40-49): 0.787 | Ratio of ethanolamine phospholipid ratio to M01, ADAS 5-19 to CN, Female ([2]; serum, females, ADAS 5-19 vs cognitive normal): 0.914 | Ratio of ethanolamine phospholipid ratio to M01, ADAS 20-39 to 5-19, Female ([2]; serum, females, ADAS 20-39 vs ADAS 5-19): 0.934 | Ratio of ethanolamine phospholipid ratio to M01, ADAS 20-39 to CN, Female ([2]; serum, females, ADAS 20-39 vs cognitive normal): 0.854 | Ratio of ethanolamine phospholipid ratio to M01, ADAS 40-70 to 5-19, Female ([2]; serum, females, ADAS 40-70 vs ADAS 5-19): 0.882 | Ratio of ethanolamine phospholipid ratio to M01, ADAS 40-70 to 20-39, Female ([2]; serum, females, ADAS 40-70 vs ADAS 20-39): 0.944 | Ratio of ethanolamine phospholipid ratio to M01, ADAS 40-70 to CN, Female ([2]; serum, females, ADAS 40-70 vs cognitive normal): 0.806 | Ethanolamine phospholipid ratio to M01, Mean, SDAT, ADAS 5-19, Female ([2]; serum, females, SDAT ADAS 5-19): 0.101 | Ethanolamine phospholipid ratio to M01, Mean, SDAT, ADAS 20-39, Female ([2]; serum, females, SDAT ADAS 20-39): 0.095 | Ethanolamine phospholipid ratio to M01, Mean, SDAT, ADAS 40-70, Female ([2]; serum, females, SDAT ADAS 40-70): 0.089 | Ratio of ethanolamine phospholipid ratio to M01, AD, All to CN, Female ([2]; serum, females, all AD vs cognitive normal): 0.854 | Ethanolamine phospholipid ratio to M01, Mean, SDAT_all Female ([2]; serum, females, all SDAT): 0.095 | Ratio of ethanolamine phospholipid ratio to M01, Autopsy AD vs. Control, Female ([2]; serum, females, autopsy AD vs post mortem control): 1.122 | Ethanolamine phospholipid ratio to M01, Mean, Cognitive Normal, Female ([2]; serum, females, cognitive normal): 0.111 | Ethanolamine phospholipid ratio to M01, Mean, Post Mortem SDAT Female [2, 3]: 0.069 | Ethanolamine phospholipid ratio to M01, Mean, Post Mortem Ctl, Female [2, 4]: 0.061 | Ratio of ethanolamine phospholipid ratio to M01, ADAS 20-39 to 5-19, Male ([2]; serum, males, SDAT ADAS 20-39 vs ADAS 5-19): 0.948 | Ratio of ethanolamine phospholipid ratio to M01, ADAS 40-70 to 5-19, Male ([2]; serum, males, SDAT ADAS 40-70 vs ADAS 5-19): 0.913 | Ratio of ethanolamine phospholipid ratio to M01, ADAS 40-70 to 20-39, Male ([2]; serum, males, SDAT ADAS 40-70 vs ADAS 20-39): 0.963 | Ethanolamine phospholipid ratio to M01, Mean, Age Ctl, 30-39, Male ([2]; serum, males, age control 30-39): 0.126 | Ethanolamine phospholipid ratio to M01, Mean, Age Ctl, 40-49, Male ([2]; serum, males, age control 40-49): 0.117 | Ethanolamine phospholipid ratio to M01, Mean, Age Ctl, 50-59, Male ([2]; serum, males, age control 50-59): 0.121 | Ethanolamine phospholipid ratio to M01, Mean, Age Ctl, 60-69, Male ([2]; serum, males, age control 60-69): 0.102 | Ethanolamine phospholipid ratio to M01, Mean, Age Ctl, 70+_Male ([2]; serum, males, age control 70+): 0.092 | Ethanolamine phospholipid ratio to M01, Mean, Post Mortem SDAT Male ([2]; serum, males, post mortem SDAT): 0.060 | Ratio of ethanolamine phospholipid ratio to M01, SDAT vs Control (post mortem, males) ([2]; serum, males, post mortem SDAT vs post mortem control): 0.759 | Ethanolamine phospholipid ratio to M01, Mean, Post Mortem Ctl, Male ([2]; serum, males, post mortem control): 0.079

A unit is not stated for every read-out.
